Results are given in words; binding and its absence hold for the method and conditions named. Binding seen in cells or lysates may run through a third protein. Some entries that bind do so weakly or less than the wild type.
Target: T1, SAMD1 full length, expressed in HEK293 cells for ectopic co-immunoprecipitation (UniProt Q6SPF0)
T1 sequence: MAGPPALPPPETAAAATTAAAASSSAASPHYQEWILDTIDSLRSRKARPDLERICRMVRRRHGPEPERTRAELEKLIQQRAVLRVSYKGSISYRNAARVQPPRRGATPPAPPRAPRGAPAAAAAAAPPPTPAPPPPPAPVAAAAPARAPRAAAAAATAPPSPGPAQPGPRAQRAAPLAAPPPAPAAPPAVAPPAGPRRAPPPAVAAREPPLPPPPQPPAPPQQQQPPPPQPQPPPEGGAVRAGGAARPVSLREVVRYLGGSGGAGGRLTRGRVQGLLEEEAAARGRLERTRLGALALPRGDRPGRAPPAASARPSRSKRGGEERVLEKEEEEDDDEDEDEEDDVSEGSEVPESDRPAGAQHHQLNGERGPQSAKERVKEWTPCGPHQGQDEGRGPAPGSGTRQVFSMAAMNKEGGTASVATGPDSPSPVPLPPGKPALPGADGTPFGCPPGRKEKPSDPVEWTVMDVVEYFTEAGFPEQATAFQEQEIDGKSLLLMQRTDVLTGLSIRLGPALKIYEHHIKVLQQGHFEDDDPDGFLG
Assay: co-IP

binding: binds
B1: F-box only protein 11 (FBXO11) in HEK293 cells (co-immunoprecipitation) (protein, UniProt Q86XK2 1-927)
chain: MNSVRAANRRPRRVSRPRPVQQQQQQPPQQPPPQPPQQQPPQQQPPPPPQQQQQQQPPPPPPPPPPLPQERNNVGERDDDVPADMVAEESGPGAQNSPYQLRRKTLLPKRTACPTKNSMEGASTSTTENFGHRAKRARVSGKSQDLSAAPAEQYLQEKLPDEVVLKIFSYLLEQDLCRAACVCKRFSELANDPILWKRLYMEVFEYTRPMMHPEPGKFYQINPEEYEHPNPWKESFQQLYKGAHVKPGFAEHFYSNPARYKGRENMLYYDTIEDALGGVQEAHFDGLIFVHSGIYTDEWIYIESPITMIGAAPGKVADKVIIENTRDSTFVFMEGSEDAYVGYMTIRFNPDDKSAQHHNAHHCLEITVNCSPIIDHCIIRSTCTVGSAVCVSGQGACPTIKHCNISDCENVGLYITDHAQGIYEDNEISNNALAGIWVKNHGNPIIRRNHIHHGRDVGVFTFDHGMGYFESCNIHRNRIAGFEVKAYANPTVVRCEIHHGQTGGIYVHEKGRGQFIENKIYANNFAGVWITSNSDPTIRGNSIFNGNQGGVYIFGDGRGLIEGNDIYGNALAGIQIRTNSCPIVRHNKIHDGQHGGIYVHEKGQGVIEENEVYSNTLAGVWVTTGSTPVLRRNRIHSGKQVGVYFYDNGHGVLEDNDIYNHMYSGVQIRTGSNPKIRRNKIWGGQNGGILVYNSGLGCIEDNEIFDNAMAGVWIKTDSNPTLRRNKIHDGRDGGICIFNGGRGLLEENDIFRNAQAGVLISTNSHPILRKNRIFDGFAAGIEITNHATATLEGNQIFNNRFGGLFLASGVNVTMKDNKIMNNQDAIEKAVSRGQCLYKISSYTSYPMHDFYRCHTCNTTDRNAICVNCIKKCHQGHDVEFIRHDRFFCDCGAGTLSNPCTLAGEPTHDTDTLYDSAPPIESNTLQHN

From publication doi:10.1101/2023.08.14.553183
